This is an account of results in PubChem BioAssay AID1273 (Columbia University Molecular Screening Center, 2008).

The other results are listed elsewhere or left out. These are further read-outs of the screen, such as a control signal, another cell line or another target. No call is given for them. Most of these compounds were active or inconclusive in the main read-out, so they are no random draw.

A short description of the test: inhibitors of insulin promoter-driven GFP, primary screen, imaging, TRM-6 cells (human fetal islet line), eGFP reporter, cell count (AID 1273;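 further: cells exposed to compound for 48 h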). To be noted: measured here: cell count, toxicity, at 2 µM, reporter expression induced with tamoxifen.
`Cc1nn(-c2ccccc2)c(Cl)c1CN(C(=O)CCl)c1ccc(Cl)cc1` gave a normalized cell count of 0%.
On to `COc1ccccc1-c1noc(-c2ccccc2C(=O)Nc2ccccc2)n1`, for which the normalized cell count stood at 73.2%.
As for `COc1ccc(C(=O)Nn2c(SCC(=O)c3ccc(Cl)cc3)nc3ccccc3c2=O)cc1`, the figure is 64%; as for `COc1ccc(OC)c(S(=O)(=O)N2CCN(c3ccccn3)CC2)c1`, 121%.
In the case of `CC1=C(C(=O)Nc2ccccc2C)C(c2ccc(C)o2)n2c(s/c(=C/c3ccccc3)c2=O)=N1` (configuration not stated), the normalized cell count stood at 34.6%.
The compound `C=CCSC1=C(C#N)C(c2ccccc2OCC)CC(=O)N1` (configuration not stated) came in with a normalized cell count of 118%.
`COc1ccc(-n2c(C)c(C(C)=O)c(C(C)=O)c2C)cc1OC`: the normalized cell count amounted to 61.4%.
Take `CC(=O)Nc1nc(N2C(=O)c3ccccc3C2=O)n(-c2ccccc2)n1`: the normalized cell count is 62.1%.
As for `O=C(CN1CCN(c2ccc([N+](=O)[O-])cc2)CC1)Nc1nccs1`, the figure is 101%; as for `CCc1nnc(NC(=O)CSc2nnc(Cc3cc(=O)[nH]c(=O)[nH]3)n2-c2ccc(OC)cc2)s1`, 42.2%; as for `CC1Oc2ccccc2C=C1C1/C(=C(/O)c2ccccc2)C(=O)C(=O)N1CCCN(C)C` (configuration not stated), 98.9%.
As for `O=C(COc1ccccc1/C=C1\SC(=O)NC1=O)Nc1ccccc1`, the figure is 38.1%; as for `O=C(c1cncc(Br)c1)N1CCc2ccccc2C1`, 43.4%; as for `O=C1OC(c2ccccc2)/C(=C(/O)c2ccc(Cl)cc2)C1=O` (configuration not stated), 124%.
On to `CCc1nc2cc(Cl)c(Cl)cc2[nH]1`, for which the normalized cell count came to 131%.
`CN(C)CCCNC1=CC(=O)CC(c2ccccc2)C1` (configuration not stated) registered a normalized cell count of 23.6%.
The value for `CCOc1cccc(C2C(C#N)=C(N)Oc3cc(C)oc(=O)c32)c1OCC` (configuration not stated) was 97.9%; that for `CCC(=NC(C)c1ccccc1)c1c(O)n(C)c(=O)n(C)c1=O` (configuration not stated) was 23.1%.
The value for `Cc1ccc(C(C)C)c(OCCNS(C)(=O)=O)c1` was 84.3%; that for `c1nc(NC2CCCCCC2)c2[nH]cnc2n1` was 99.7%.
In turn, `CN(C)c1ccc(S(=O)(=O)c2ccc(Cl)cc2)cc1` returned a normalized cell count of 107%.
As for `COC(=O)CN1C(=S)N(Cc2ccccc2)C(=O)C1CC(=O)Nc1ccc(OC)cc1` (configuration not stated), the figure is 39.4%; as for `Cc1ccc(CN2C(=O)CCC2C(=O)NCCCN2CCC(C)CC2)cc1` (configuration not stated), 129%.
As for `COc1ccc(NS(=O)(=O)c2ccc(O)c(NC(=O)c3cc4c(C)nn(-c5ccc(F)cc5)c4s3)c2)cc1`, the normalized cell count came to 107%.
`O=C1Nc2ccc(S(=O)(=O)NCCC3=CCCCC3)c3cccc1c23` displayed a normalized cell count of 67.8%.
In turn, `C=CCNC(=O)COC(=O)c1ccc(C)c(NC(=O)c2ccco2)c1` came in with a normalized cell count of 42.9%.
In the case of `COc1cc(OC)cc(C(=O)NCC(=O)OCC(=O)Nc2ccc3c(c2)OCO3)c1`, the normalized cell count was found to be 123%.
`COc1cccc(OC)c1OCCN(C)C` came in with a normalized cell count of 92.6%.
Turning to `Cc1ccc(C(=O)NNC2CC(=O)N(c3ccc4c(c3)OCCO4)C2=O)cc1` (configuration not stated), the normalized cell count was found to be 49.1%.
As for `Cc1ccc(-c2nnn(CC(=O)N(C)C3CCCCC3)n2)o1`, the figure is 90.5%; as for `O=C(NCCCn1ccnc1)c1cc([N+](=O)[O-])cc([N+](=O)[O-])c1`, 167%; as for `O=C(O)c1cccc(NC(=S)N/N=C/c2cccc(O)c2)c1`, 32.6%.
As for `Cc1cc(NCCO)nc(-n2nc(C)cc2C)n1`, the figure is 61.5%; as for `Cc1nc2ccccc2c(=O)n1NC(=O)c1ccccc1[N+](=O)[O-]`, 43.5%.
The value for `Cc1ccccc1-c1noc(-c2cccs2)n1` was 98.4%; that for `CCN1C(=O)C(O)(CC(=O)c2ccccn2)c2ccccc21` (configuration not stated) was 25.8%; that for `COc1cc(OC)c(C2=NOC(C(=O)Nc3c(C)nn(CC(=O)N4CCCC4)c3C)C2)cc1Cl` (configuration not stated) was 90.3%.
In turn, `COc1cccc(-c2nn(C)c3sc(C(=O)NCc4ccc(C)o4)cc23)c1` came in with a normalized cell count of 66.8%.
The value for `CC(=O)Nc1nn(C)c2nc3cc(C)ccc3cc12` was 71.9%; that for `CCOC(=O)C1CCN(C(=O)CSc2n[nH]c(=O)[nH]c2=O)CC1` was 112%; that for `Cc1nc2c3cc(F)ccc3n(Cc3ccc(F)cc3)c2s1` was 116%.
`O=C(O)c1ccc(-c2ncc[nH]2)cc1` came in with a normalized cell count of 40.7%.
As for `COC(=O)CSCC(=O)Nc1cc2c(cc1C(C)=O)OCO2`, the figure is 51.8%; as for `COc1ccc(CN2C3CCCC2CC(NC(=O)Nc2ccccc2)C3)cc1` (configuration not stated), 35.8%.
The value for `O=C(Nc1ccc(S(=O)(=O)N2CCCCC2)cc1)c1ccc(CN2CCOCC2)cc1` was 100%; that for `Cc1cccc(-c2noc(-c3ccccc3C(=O)NCC3CCCO3)n2)c1` (configuration not stated) was 97.5%; that for `COc1ccc(C2C3=C(N=C4SCC(=O)N42)c2ccccc2CC3)cc1` (configuration not stated) was 90.1%.
